PubChem BioAssay AID1159584, Peter MacCallum Cancer Centre | 2016

Aim: 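Genes that CDH1-null MCF10A cells selectively depend on to survive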 (primary screen)
Cell system: human MCF10A breast epithelial cells, parental and CDH1-null
Reagents: siRNA against human genes
Measured: 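ATP luminescence (CellTiter-Glo) viability per line relative to mean mock wells over all plates, and the ratio of CDH1-null to parental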
Scale: CDH1-null / parental viability ratio: higher = CDH1-null cells survive relatively better than parental; CDH1-null viability vs mock: higher = more viable CDH1-null cells
Shown is one part, drawn at random, of about 18,000 deposited reagents. Not all columns of the deposit are shown. Reagent sequences are not shown. Not given: the amount of reagent, the time to read-out.

SPCS3 [SID152152524]
- CDH1-null / parental viability ratio: 1.04
- CDH1-null viability vs mock (fraction of mock): 0.79

COPS7A [SID134324505]
- CDH1-null / parental viability ratio: 1.04
- CDH1-null viability vs mock (fraction of mock): 0.88

CTNNA1 [SID152147327]
- CDH1-null / parental viability ratio: 1.12
- CDH1-null viability vs mock (fraction of mock): 0.48

GAS7 [SID134315827]
- CDH1-null / parental viability ratio: 0.93
- CDH1-null viability vs mock (fraction of mock): 0.95

PXDC1 [SID134323162]
- CDH1-null / parental viability ratio: 0.83
- CDH1-null viability vs mock (fraction of mock): 0.78

TMEM158 [SID152152812]
- CDH1-null / parental viability ratio: 1.28
- CDH1-null viability vs mock (fraction of mock): 0.78

DIO2 [SID152151177]
- CDH1-null / parental viability ratio: 0.98
- CDH1-null viability vs mock (fraction of mock): 1

CIP2A [SID134318312]
- CDH1-null / parental viability ratio: 1
- CDH1-null viability vs mock (fraction of mock): 0.74

ELF1 [SID134316931]
- CDH1-null / parental viability ratio: 1.29
- CDH1-null viability vs mock (fraction of mock): 0.98

SLC48A1 [SID135623969]
- CDH1-null / parental viability ratio: 1.53
- CDH1-null viability vs mock (fraction of mock): 0.66

ALG10B [SID135624617]
- CDH1-null / parental viability ratio: 1.02
- CDH1-null viability vs mock (fraction of mock): 1.06

LY6D [SID135622349]
- CDH1-null / parental viability ratio: 0.97
- CDH1-null viability vs mock (fraction of mock): 0.74

MYO18A [SID134316233]
- CDH1-null / parental viability ratio: 1.4
- CDH1-null viability vs mock (fraction of mock): 0.63

MYO18A [SID134329267]
- CDH1-null / parental viability ratio: 0.77
- CDH1-null viability vs mock (fraction of mock): 0.59

Taken from above.
CIP2A [SID134318312], CDH1-null / parental viability ratio: 1
For “CDH1-null viability vs mock (fraction of mock)”, GAS7 [SID134315827] is entered as 0.95
Entry for DIO2 [SID152151177] under “CDH1-null viability vs mock (fraction of mock)”: 1
Result of COPS7A [SID134324505] under “CDH1-null viability vs mock (fraction of mock)”: 0.88
SLC48A1 [SID135623969], CDH1-null viability vs mock (fraction of mock) = 0.66
Result for LY6D [SID135622349] under “CDH1-null / parental viability ratio”: 0.97

Further reagents follow:
RAB13 [SID134313264]
- CDH1-null / parental viability ratio: 0.94
- CDH1-null viability vs mock (fraction of mock): 0.9

TSNAX [SID134316488]
- CDH1-null / parental viability ratio: 1.18
- CDH1-null viability vs mock (fraction of mock): 0.8

NLRP7 [SID135623230]
- CDH1-null / parental viability ratio: 1.17
- CDH1-null viability vs mock (fraction of mock): 0.7

ZNF518B [SID135624443]
- CDH1-null / parental viability ratio: 0.86
- CDH1-null viability vs mock (fraction of mock): 0.72

FETUB [SID152155276]
- CDH1-null / parental viability ratio: 1.17
- CDH1-null viability vs mock (fraction of mock): 0.91

PRDX3 [SID134314928]
- CDH1-null / parental viability ratio: 1.07
- CDH1-null viability vs mock (fraction of mock): 1.25

RGS18 [SID135621582]
- CDH1-null / parental viability ratio: 1.15
- CDH1-null viability vs mock (fraction of mock): 0.97

XKRX [SID134330005]
- CDH1-null / parental viability ratio: 1
- CDH1-null viability vs mock (fraction of mock): 0.94

VPS33B [SID152153035]
- CDH1-null / parental viability ratio: 1.11
- CDH1-null viability vs mock (fraction of mock): 0.82

OR10H1 [SID152153335]
- CDH1-null / parental viability ratio: 0.78
- CDH1-null viability vs mock (fraction of mock): 0.57

ACKR4 [SID134310907]
- CDH1-null / parental viability ratio: 1.43
- CDH1-null viability vs mock (fraction of mock): 0.97

JPH4 [SID134318985]
- CDH1-null / parental viability ratio: 1.19
- CDH1-null viability vs mock (fraction of mock): 0.88

ITPRID1 [SID152156072]
- CDH1-null / parental viability ratio: 1.15
- CDH1-null viability vs mock (fraction of mock): 0.86

WDR83 [SID152148367]
- CDH1-null / parental viability ratio: 1.27
- CDH1-null viability vs mock (fraction of mock): 0.38

KL [SID152153205]
- CDH1-null / parental viability ratio: 0.84
- CDH1-null viability vs mock (fraction of mock): 0.82

PMVK [SID135621255]
- CDH1-null / parental viability ratio: 0.63
- CDH1-null viability vs mock (fraction of mock): 0.36

ISG15 [SID152149955]
- CDH1-null / parental viability ratio: 0.78
- CDH1-null viability vs mock (fraction of mock): 0.67

RPL36 [SID152155137]
- CDH1-null / parental viability ratio: 1.44
- CDH1-null viability vs mock (fraction of mock): 0.46

CCNP [SID134318642]
- CDH1-null / parental viability ratio: 0.84
- CDH1-null viability vs mock (fraction of mock): 0.72

DHX33 [SID134321155]
- CDH1-null / parental viability ratio: 1.14
- CDH1-null viability vs mock (fraction of mock): 0.64

CIMAP2 [SID152153639]
- CDH1-null / parental viability ratio: 0.87
- CDH1-null viability vs mock (fraction of mock): 0.66
